For four molecules, binding results are on record in article PMC7903899.

Amino acid sequences for entries named in this document (tags omitted).
UniProt Q94AN4: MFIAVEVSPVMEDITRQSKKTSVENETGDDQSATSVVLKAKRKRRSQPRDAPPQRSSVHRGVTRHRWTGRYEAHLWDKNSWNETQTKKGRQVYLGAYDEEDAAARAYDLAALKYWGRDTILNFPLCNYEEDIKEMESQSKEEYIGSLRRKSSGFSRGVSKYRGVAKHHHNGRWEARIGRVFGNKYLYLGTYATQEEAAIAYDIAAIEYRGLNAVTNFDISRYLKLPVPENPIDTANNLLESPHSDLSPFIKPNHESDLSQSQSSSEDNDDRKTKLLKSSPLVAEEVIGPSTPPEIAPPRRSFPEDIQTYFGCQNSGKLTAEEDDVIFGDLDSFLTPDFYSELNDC

These are yes or no findings as the source states them, for the method shown. For part of these data: Binding seen in cells or lysates may run through a third protein. Some binding calls cover weakened binding; strength is not graded here. For part of these data: Where a sequence is shown, tags or fusion partners need not be part of it.

Test [1] concerns the target T1, Armadillo BTB Arabidopsis protein 1 (ABAP1), yeast two-hybrid fusion (Arabidopsis thaliana) (UniProt B7U179).
T1 sequence: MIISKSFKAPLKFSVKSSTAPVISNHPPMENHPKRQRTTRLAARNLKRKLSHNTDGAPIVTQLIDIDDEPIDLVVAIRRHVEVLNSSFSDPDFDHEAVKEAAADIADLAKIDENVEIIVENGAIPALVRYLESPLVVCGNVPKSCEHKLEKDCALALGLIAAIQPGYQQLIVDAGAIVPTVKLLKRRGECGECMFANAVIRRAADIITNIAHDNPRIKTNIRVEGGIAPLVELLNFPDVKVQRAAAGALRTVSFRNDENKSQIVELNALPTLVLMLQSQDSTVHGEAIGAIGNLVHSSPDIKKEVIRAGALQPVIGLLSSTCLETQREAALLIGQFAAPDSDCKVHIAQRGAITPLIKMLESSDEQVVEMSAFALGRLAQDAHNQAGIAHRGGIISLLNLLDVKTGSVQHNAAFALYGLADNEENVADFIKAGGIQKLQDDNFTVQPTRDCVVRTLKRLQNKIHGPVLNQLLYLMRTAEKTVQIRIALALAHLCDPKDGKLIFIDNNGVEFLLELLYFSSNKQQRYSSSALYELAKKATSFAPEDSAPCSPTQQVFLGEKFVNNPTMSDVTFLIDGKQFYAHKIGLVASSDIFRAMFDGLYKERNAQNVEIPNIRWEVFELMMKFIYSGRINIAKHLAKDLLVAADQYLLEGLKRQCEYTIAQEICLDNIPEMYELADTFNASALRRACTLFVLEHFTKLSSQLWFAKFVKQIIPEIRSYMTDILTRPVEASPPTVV
As to the kind of experiment: two-hybrid; yeast; pairs cloned in both AD and DBD vectors; growth on SD medium lacking leucine, tryptophan, histidine and adenine (selection of strong interactions); empty vectors as negative controls.

Test [2] addresses T2, Armadillo BTB Arabidopsis protein 1 (ABAP1), GST fusion (Arabidopsis thaliana) (UniProt B7U179).
T2 sequence: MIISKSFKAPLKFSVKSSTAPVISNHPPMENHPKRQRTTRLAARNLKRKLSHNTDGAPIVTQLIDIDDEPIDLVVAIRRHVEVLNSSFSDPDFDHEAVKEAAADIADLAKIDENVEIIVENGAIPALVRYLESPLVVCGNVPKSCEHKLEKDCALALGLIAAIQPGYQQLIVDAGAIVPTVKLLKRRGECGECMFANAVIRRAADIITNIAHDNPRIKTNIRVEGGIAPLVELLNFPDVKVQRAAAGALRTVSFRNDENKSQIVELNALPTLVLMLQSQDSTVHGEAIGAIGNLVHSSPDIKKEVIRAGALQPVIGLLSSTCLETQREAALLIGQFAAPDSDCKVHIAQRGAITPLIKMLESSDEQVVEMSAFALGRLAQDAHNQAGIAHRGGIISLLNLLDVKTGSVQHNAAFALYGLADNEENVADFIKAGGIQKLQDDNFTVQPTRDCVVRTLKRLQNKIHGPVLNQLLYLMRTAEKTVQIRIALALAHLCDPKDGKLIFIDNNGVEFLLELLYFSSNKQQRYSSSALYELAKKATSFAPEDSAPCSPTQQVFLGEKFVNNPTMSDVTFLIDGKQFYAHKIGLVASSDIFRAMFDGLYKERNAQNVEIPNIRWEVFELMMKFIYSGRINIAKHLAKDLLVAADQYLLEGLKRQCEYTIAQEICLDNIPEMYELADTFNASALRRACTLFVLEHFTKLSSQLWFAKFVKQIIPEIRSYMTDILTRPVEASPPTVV
The experiment in a line: pull-down; GST pull-down; ABAP1-GST or GST alone as bait, HIS-tagged protein as prey, both produced in E. coli; Western blot with anti-HIS antibody. A general note: Immunoblotting shows a protein as a band on a membrane.

The target of test [3] is T3, TCP16, HIS fusion (Arabidopsis thaliana) (UniProt Q9M1U4).
T3 sequence: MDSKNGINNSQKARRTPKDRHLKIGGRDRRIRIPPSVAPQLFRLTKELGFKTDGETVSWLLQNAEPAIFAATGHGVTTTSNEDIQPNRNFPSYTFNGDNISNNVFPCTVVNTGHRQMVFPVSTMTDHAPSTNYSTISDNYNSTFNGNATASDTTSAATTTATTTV
The experiment in a line: pull-down; semi in vivo HIS pull-down; HIS-fused protein added to Arabidopsis (flower bud) protein extract, purified on a nickel column, ABAP1 detected with anti-ABAP1 antibody.

In test [4] the target is ARIA-interacting double AP2-domain protein (ADAP) / WRINKLED3 (WRI3), HIS fusion (Arabidopsis thaliana) (UniProt Q94AN4). The description is as above.
In test [5] the target is T3, TCP16, HIS fusion (Arabidopsis thaliana). As to the kind of experiment: native gel or EMSA; EMSA with radiolabeled promoter probe; ABAP1 added to the transcription factor on its DNA probe gives a supershift; ABAP1 alone and GST alone do not bind the probe. (Mobility shift assays separate free from complexed probe on a gel.)
The target in test [6] is ARIA-interacting double AP2-domain protein (ADAP) / WRINKLED3 (WRI3), HIS fusion (Arabidopsis thaliana) (UniProt Q94AN4). Described as above.

B1: TCP16, yeast two-hybrid fusion (protein, UniProt Q9M1U4 1-165)
chain: MDSKNGINNSQKARRTPKDRHLKIGGRDRRIRIPPSVAPQLFRLTKELGFKTDGETVSWLLQNAEPAIFAATGHGVTTTSNEDIQPNRNFPSYTFNGDNISNNVFPCTVVNTGHRQMVFPVSTMTDHAPSTNYSTISDNYNSTFNGNATASDTTSAATTTATTTV
B1: the binding result in test [1] was “binds”.

B2: TCP16, HIS fusion (protein, UniProt Q9M1U4 1-165)
chain: MDSKNGINNSQKARRTPKDRHLKIGGRDRRIRIPPSVAPQLFRLTKELGFKTDGETVSWLLQNAEPAIFAATGHGVTTTSNEDIQPNRNFPSYTFNGDNISNNVFPCTVVNTGHRQMVFPVSTMTDHAPSTNYSTISDNYNSTFNGNATASDTTSAATTTATTTV
Turning to B2, the binding entry in test [2] was “binds”.

B3: Armadillo BTB Arabidopsis protein 1 (ABAP1), endogenous (protein, UniProt B7U179 1-737)
chain: MIISKSFKAPLKFSVKSSTAPVISNHPPMENHPKRQRTTRLAARNLKRKLSHNTDGAPIVTQLIDIDDEPIDLVVAIRRHVEVLNSSFSDPDFDHEAVKEAAADIADLAKIDENVEIIVENGAIPALVRYLESPLVVCGNVPKSCEHKLEKDCALALGLIAAIQPGYQQLIVDAGAIVPTVKLLKRRGECGECMFANAVIRRAADIITNIAHDNPRIKTNIRVEGGIAPLVELLNFPDVKVQRAAAGALRTVSFRNDENKSQIVELNALPTLVLMLQSQDSTVHGEAIGAIGNLVHSSPDIKKEVIRAGALQPVIGLLSSTCLETQREAALLIGQFAAPDSDCKVHIAQRGAITPLIKMLESSDEQVVEMSAFALGRLAQDAHNQAGIAHRGGIISLLNLLDVKTGSVQHNAAFALYGLADNEENVADFIKAGGIQKLQDDNFTVQPTRDCVVRTLKRLQNKIHGPVLNQLLYLMRTAEKTVQIRIALALAHLCDPKDGKLIFIDNNGVEFLLELLYFSSNKQQRYSSSALYELAKKATSFAPEDSAPCSPTQQVFLGEKFVNNPTMSDVTFLIDGKQFYAHKIGLVASSDIFRAMFDGLYKERNAQNVEIPNIRWEVFELMMKFIYSGRINIAKHLAKDLLVAADQYLLEGLKRQCEYTIAQEICLDNIPEMYELADTFNASALRRACTLFVLEHFTKLSSQLWFAKFVKQIIPEIRSYMTDILTRPVEASPPTVV
Regarding B3, the binding result in test [3] and in test [4] was “binds” each time.

B4: Armadillo BTB Arabidopsis protein 1 (ABAP1), GST fusion (protein, UniProt B7U179 1-737)
chain: MIISKSFKAPLKFSVKSSTAPVISNHPPMENHPKRQRTTRLAARNLKRKLSHNTDGAPIVTQLIDIDDEPIDLVVAIRRHVEVLNSSFSDPDFDHEAVKEAAADIADLAKIDENVEIIVENGAIPALVRYLESPLVVCGNVPKSCEHKLEKDCALALGLIAAIQPGYQQLIVDAGAIVPTVKLLKRRGECGECMFANAVIRRAADIITNIAHDNPRIKTNIRVEGGIAPLVELLNFPDVKVQRAAAGALRTVSFRNDENKSQIVELNALPTLVLMLQSQDSTVHGEAIGAIGNLVHSSPDIKKEVIRAGALQPVIGLLSSTCLETQREAALLIGQFAAPDSDCKVHIAQRGAITPLIKMLESSDEQVVEMSAFALGRLAQDAHNQAGIAHRGGIISLLNLLDVKTGSVQHNAAFALYGLADNEENVADFIKAGGIQKLQDDNFTVQPTRDCVVRTLKRLQNKIHGPVLNQLLYLMRTAEKTVQIRIALALAHLCDPKDGKLIFIDNNGVEFLLELLYFSSNKQQRYSSSALYELAKKATSFAPEDSAPCSPTQQVFLGEKFVNNPTMSDVTFLIDGKQFYAHKIGLVASSDIFRAMFDGLYKERNAQNVEIPNIRWEVFELMMKFIYSGRINIAKHLAKDLLVAADQYLLEGLKRQCEYTIAQEICLDNIPEMYELADTFNASALRRACTLFVLEHFTKLSSQLWFAKFVKQIIPEIRSYMTDILTRPVEASPPTVV
For B4, the binding entry in test [5] and in test [6] was “binds” throughout.
